This note sets out measurements from paper PMC7177239, “Transitional States in Ligand-Dependent Transformation of the Aryl Hydrocarbon Receptor into Its DNA-Binding Form” (International Journal of Molecular Sciences, 2020).

Protein sequences, listed by entry. Tags and fused reporters are not part of them.
UniProt P30561: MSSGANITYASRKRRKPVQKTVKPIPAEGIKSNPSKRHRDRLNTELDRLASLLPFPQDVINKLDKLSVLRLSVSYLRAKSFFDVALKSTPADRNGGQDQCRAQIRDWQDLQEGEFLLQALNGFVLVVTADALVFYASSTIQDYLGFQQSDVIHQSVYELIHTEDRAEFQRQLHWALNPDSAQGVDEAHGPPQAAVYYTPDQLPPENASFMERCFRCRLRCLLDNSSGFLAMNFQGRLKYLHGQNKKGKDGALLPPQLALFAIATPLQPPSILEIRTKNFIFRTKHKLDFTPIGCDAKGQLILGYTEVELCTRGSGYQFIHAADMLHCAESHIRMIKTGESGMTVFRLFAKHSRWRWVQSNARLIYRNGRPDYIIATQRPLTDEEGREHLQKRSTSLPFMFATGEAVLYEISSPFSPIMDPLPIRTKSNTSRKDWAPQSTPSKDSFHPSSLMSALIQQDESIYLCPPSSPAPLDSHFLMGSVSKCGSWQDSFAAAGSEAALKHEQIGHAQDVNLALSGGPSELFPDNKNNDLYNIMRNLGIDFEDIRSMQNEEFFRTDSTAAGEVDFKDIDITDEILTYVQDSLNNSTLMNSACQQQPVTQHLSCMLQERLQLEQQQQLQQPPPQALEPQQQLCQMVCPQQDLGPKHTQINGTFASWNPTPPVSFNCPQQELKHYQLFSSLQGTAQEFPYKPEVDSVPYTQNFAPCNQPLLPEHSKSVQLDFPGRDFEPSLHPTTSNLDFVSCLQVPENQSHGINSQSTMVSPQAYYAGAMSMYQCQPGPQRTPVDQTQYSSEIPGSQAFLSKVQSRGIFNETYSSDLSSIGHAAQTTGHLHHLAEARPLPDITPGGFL
UniProt P53762: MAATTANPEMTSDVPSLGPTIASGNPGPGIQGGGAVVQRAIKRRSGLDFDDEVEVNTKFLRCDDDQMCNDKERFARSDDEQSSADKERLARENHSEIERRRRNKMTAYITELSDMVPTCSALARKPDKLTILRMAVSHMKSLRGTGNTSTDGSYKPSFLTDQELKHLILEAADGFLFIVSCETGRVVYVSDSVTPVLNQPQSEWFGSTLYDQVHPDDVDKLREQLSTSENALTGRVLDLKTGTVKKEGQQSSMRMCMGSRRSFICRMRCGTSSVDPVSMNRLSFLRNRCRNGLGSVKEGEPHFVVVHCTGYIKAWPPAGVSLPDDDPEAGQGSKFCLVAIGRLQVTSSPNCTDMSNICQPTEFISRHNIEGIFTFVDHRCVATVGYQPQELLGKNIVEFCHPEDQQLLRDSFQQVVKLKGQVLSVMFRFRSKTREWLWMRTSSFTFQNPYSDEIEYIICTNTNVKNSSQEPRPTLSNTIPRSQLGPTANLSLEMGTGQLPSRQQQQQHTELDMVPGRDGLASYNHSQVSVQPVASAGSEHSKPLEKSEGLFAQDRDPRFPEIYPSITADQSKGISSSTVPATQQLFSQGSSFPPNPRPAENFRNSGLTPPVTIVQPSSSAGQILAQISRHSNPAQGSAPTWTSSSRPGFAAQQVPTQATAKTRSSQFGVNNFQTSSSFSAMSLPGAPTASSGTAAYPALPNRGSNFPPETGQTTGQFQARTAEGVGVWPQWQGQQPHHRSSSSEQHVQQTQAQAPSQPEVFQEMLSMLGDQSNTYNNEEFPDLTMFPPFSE

The test deals with wild type aryl hydrocarbon receptor (mouse) (mouse) (UniProt P30561). Put plainly: co-IP; hsp90 precipitated with the 3G3 anti-hsp90 antibody from a 1:1 mixture of in vitro synthesized [35S]ARNT and unlabeled AhR, incubated with 20 nM TCDD and 20 mM sodium molybdate for 1.5 h at room temperature; molybdate also in the washing buffer; [35S]ARNT bands quantitated.

No constants are given. Whether binding was seen depends on the method and setting. Binding seen in cells or lysates may run through a third protein. Some binding calls cover weakened binding; strength is not graded here.

Turning to “aryl hydrocarbon receptor nuclear translocator (from UniProt P53762 1-791)”, the binding entry is “binds”.
